# Structures can show the parent of a compound that is named as a salt. The list shows a part of the results. This data set is noisy: repeats of one test often differ as much as different tests do.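 Human kidney-derived cells stably carry a construct in which eight TEAD-binding elements drive luciferase, measured by luminescence in a drug-repurposing library screen. A hit is any compound whose signal exceeds the plate mean by more than five robust Z scores.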
# System: HEK293A TEAD-LUC reporter
# Experiment: TEAD-luciferase reporter activity (YAP activation), robust Z score vs plate; higher = stronger YAP/TEAD activation
# Details: 24 h
Structure (SMILES),TEAD-luciferase reporter activity (compound concentration: 200 nM),TEAD-luciferase reporter activity (compound concentration: 10 uM),TEAD-luciferase reporter activity (compound concentration: 2 uM)
CC(C)CN(C[C@@H](O)[C@H](Cc1ccccc1)NC(=O)O[C@H]1CCOC1)S(=O)(=O)c1ccc(N)cc1 [Amprenavir],inactive: -0.614,inactive: 2.36,
CC(C)CN(C[C@@H](O)[C@H](Cc1ccccc1)NC(=O)O[C@H]1CCOC1)S(=O)(=O)c1ccc(N)cc1 [amprenavir],,,inactive: 0.409
Cn1c(=O)c2c(ncn2CCN2CCC(C(=O)c3ccc(F)cc3)CC2)n(C)c1=O,inactive: -1.61,inactive: 0.856,inactive: -0.0733
O=C(c1ccc(Cl)cc1)N1CC2(CCN(C3CCCCC3)CC2)Cc2ccccc21,inactive: 4.47,inactive: 3.51,
CCCCCCCCN=c1ccn(CCCCCCCC)cc1,inactive: -2.02,inactive: -1.84,inactive: -0.996
COc1cc(CC2c3cc(OC)c(OC)cc3CC[NH+]2C)c(Oc2cc3c(cc2OC)-c2c(OC)c(OC)cc4c2C(C3)[NH+](C)CC4)cc1OC (stereo not drawn) [Thalicarpine],inactive: -2.06,inactive: -1.26,inactive: -2.31
CCCCCCOC(=O)C1(O)CC2OC1(C)n1c3ccccc3c3c4c(c5c6ccccc6n2c5c31)C(=O)NC4 (stereo not drawn),inactive: -0.759,inactive: 1.75,active: 6.53
COc1ccc2nc([S+]([O-])Cc3nccc(N4CCOCC4)c3Cl)[nH]c2c1 (stereo not drawn),inactive: -0.394,inactive: -1.39,inactive: 0.725
COc1c(N2CCC(CN)(CF)C2)c(F)cc2c(=O)c(C(=O)O)cn(C3CC3)c12 (stereo not drawn),inactive: -0.476,inactive: 0.0529,inactive: -0.354
CC(C)C(=O)N1Cc2ccccc2CC2(CCCCN2CC2CCNC2)C1 (stereo not drawn),inactive: -2.05,inactive: 0.091,
CC(C)(C)OC(=O)N1CCCC1CO (stereo not drawn),inactive: -1.43,inactive: -1.29,inactive: 1.09
CCn1cc(C(=O)O)c(=O)c2ccc(C)nc21 [Nalidixic acid],,,inactive: -1.35
CCn1cc(C(=O)O)c(=O)c2ccc(C)nc21,inactive: 0.376,inactive: -2.15,
N#Cc1cn(-c2ccc(C(=O)O)c(O)c2)c2cc(F)c(F)cc12,inactive: -1.03,inactive: -0.351,inactive: -0.36
CC(Cc1c[nH]c2ccccc12)(NC(=O)OC1C2CC3CC(C2)CC1C3)C(=O)N[C@H]1CCCC[C@@H]1O (stereo partly drawn),inactive: -0.85,inactive: -0.599,inactive: -1.03
Nc1nc(O)c2sc(=O)n([C@@H]3O[C@H](CO)C(O)C3O)c2n1 (stereo partly drawn) [Isatoribine],inactive: -1,active: 9.33,inactive: 0.841
CC#CCn1c(N2CCC[C@H](N)C2)nc2c1c(=O)n(Cc1nc(C)c3ccccc3n1)c(=O)n2C,,,inactive: -0.536
CC#CCn1c(N2CCC[C@H](N)C2)nc2c1c(=O)n(Cc1nc(C)c3ccccc3n1)c(=O)n2C [Linagliptin (BI-1356)],inactive: 1.74,inactive: -1.08,
COc1ccccc1N1CCN(CC(C(=O)NC(C)(C)C)c2ccccc2)CC1 (stereo not drawn),inactive: -0.452,inactive: 2.09,inactive: 0.234
Cc1cn(-c2cc(NC(=O)c3ccc(C)c(Nc4nccc(-c5cnccn5)n4)c3)cc(C(F)(F)F)c2)cn1 [Radotinib],inactive: -0.919,inactive: 1.9,inactive: 0.492
"CCOC(=O)[C@H](CCc1ccccc1)N[C@@H](C)C(=O)N1C(=O)N(C)C[C@H]1C(=O)O [imidapril hydrochloride, Ark]",inactive: -2.47,inactive: 1.06,inactive: -1.51
CC(C)=CCC/C(C)=C/C=C/C(C)=C/C=C/C(C)=C/C=C/C=C(C)/C=C/C=C(C)/C=C/C=C(\C)CCC=C(C)C [Lycopene],inactive: 0.759,active: 6.51,inactive: -0.816
CCOC(=O)C1=C(COCCOCCN)NC(C)=C(C(=O)OC)C1c1cccc(Cl)c1Cl (stereo not drawn),inactive: -0.828,inactive: 1.53,inactive: -0.426
O=C1c2ccccc2C(=O)C1c1ccccc1,inactive: -1.67,inactive: -0.688,
O=C1c2ccccc2C(=O)C1c1ccccc1 [Phenindione],,,inactive: 0.595
N#Cc1ccc(Oc2ccc3c(c2)COB3O)cc1,inactive: 0.617,inactive: 0.105,inactive: -1.59
CC1=CCC[C@H]2[C@](C)(Cc3cc(O)ccc3O)[C@@H](C)CC[C@]12C [Avarol],inactive: 0.925,inactive: 1.52,inactive: 0.89
COc1ccc2c(c1)-c1nc(-c3ccncc3)[nH]c1CCC2,inactive: -2.05,inactive: 2.32,inactive: -1.15
CC(C)[C@H]1C(=O)N[C@@H](CCCNC(=N)N)C(=O)NCC(=O)N[C@@H](CC(=O)O)C(=O)N[C@H](Cc2ccccc2)C(=O)N1C [Cilengitide],inactive: -0.832,inactive: -2.92,inactive: -2.65

# 2 entries from above in another layout.
Structure (SMILES) | TEAD-luciferase reporter activity (compound concentration: 200 nM) | TEAD-luciferase reporter activity (compound concentration: 10 uM) | TEAD-luciferase reporter activity (compound concentration: 2 uM)
CCCCCCOC(=O)C1(O)CC2OC1(C)n1c3ccccc3c3c4c(c5c6ccccc6n2c5c31)C(=O)NC4 (stereo not drawn) | inactive: -0.759 | inactive: 1.75 | active: 6.53
CC(C)C(=O)N1Cc2ccccc2CC2(CCCCN2CC2CCNC2)C1 (stereo not drawn) | inactive: -2.05 | inactive: 0.091 | 

# From the supplement of paper PMC10735217
